Assay [1] has as its target T1, GLK2-GFP (Arabidopsis thaliana) (UniProt Q9FFH0).
T1 sequence: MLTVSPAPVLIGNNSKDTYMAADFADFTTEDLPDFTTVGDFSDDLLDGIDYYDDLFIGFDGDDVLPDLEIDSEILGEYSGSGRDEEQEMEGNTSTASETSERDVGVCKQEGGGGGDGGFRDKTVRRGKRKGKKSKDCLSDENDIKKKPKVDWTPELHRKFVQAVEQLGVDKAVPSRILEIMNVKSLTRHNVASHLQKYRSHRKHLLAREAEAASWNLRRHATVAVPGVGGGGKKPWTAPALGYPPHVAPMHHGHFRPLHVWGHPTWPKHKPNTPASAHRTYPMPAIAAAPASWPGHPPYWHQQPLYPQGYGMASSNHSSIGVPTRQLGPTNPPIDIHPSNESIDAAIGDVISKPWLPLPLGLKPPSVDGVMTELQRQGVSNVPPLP
As to the kind of experiment: co-IP; extracts of 14-day-old Arabidopsis seedlings (35S:GLK1-GFP/glk1glk2 or 35S:GLK2-GFP, WT as control); GLK1/2-GFP immunoprecipitated with GFP-Trap A; blots with anti-GFP and anti-BPG4.

Assay [2] has as its target T2, GLK1-GFP (Arabidopsis thaliana) (UniProt Q9SIV3).
T2 sequence: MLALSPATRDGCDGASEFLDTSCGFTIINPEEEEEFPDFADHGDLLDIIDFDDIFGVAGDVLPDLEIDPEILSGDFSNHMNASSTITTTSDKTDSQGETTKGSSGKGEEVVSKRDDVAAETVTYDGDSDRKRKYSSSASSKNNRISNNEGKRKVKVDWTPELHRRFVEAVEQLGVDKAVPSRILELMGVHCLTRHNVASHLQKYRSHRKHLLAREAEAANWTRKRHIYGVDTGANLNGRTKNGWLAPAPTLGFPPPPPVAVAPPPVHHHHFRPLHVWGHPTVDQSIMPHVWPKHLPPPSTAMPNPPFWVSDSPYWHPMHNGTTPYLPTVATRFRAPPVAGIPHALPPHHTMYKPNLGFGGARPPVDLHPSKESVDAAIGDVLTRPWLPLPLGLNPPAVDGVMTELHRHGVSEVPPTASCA
The description is as above.

These are yes or no findings as the source states them, for the method shown. In cells and extracts the contact can be indirect. Binding calls can cover weak binding; strength is not graded here. Sequences can lack the tags named with a protein.

Consider endogenous BPG4 protein, for which the binding result in assay [1] and in assay [2] was “binds” in each case.

For the origin of these results see paper PMC10774444, “BPG4 regulates chloroplast development and homeostasis by suppressing GLK transcription factors and involving light and brassinosteroid signaling”.
